Measured values taken from patent US20040063738A1, “Substituted heterocyclic phthalic acid diamide arthropodicides” (priority 2003, published 2004).
Some of these results come from one statement about several compounds together.

Columns and labels:
Assay type in all cases: in vivo
[1] = system: tobacco budworm (Heliothis virescens); assay: Test C: control of tobacco budworm on cotton plant, foliar spray; settings: sprayed at 50 ppm; cotton plant with 8 2-day-old larvae; visually rated as in Test A
[2] = system: diamondback moth (Plutella xylostella); assay: Test A: control of diamondback moth on radish plant, foliar spray; settings: sprayed at 50 ppm; radish plant with 10-15 neonate larvae; visually assessed after 6 days at 25° C., 70% relative humidity
[3] = system: fall armyworm (Spodoptera fugiperda); assay: Test B: control of fall armyworm on corn (maize) plant, foliar spray; settings: sprayed at 50 ppm; corn (maize) plant with 10-15 1-day-old larvae; visually rated as in Test A

Structure (SMILES) | feeding damage (excellent levels of plant protection) [1] [%] | feeding damage (excellent levels of plant protection) [2] [%] | feeding damage (excellent levels of plant protection) [3] [%]
CC(C)NC(=O)c1c(I)cccc1C(=O)Nc1ccc(OCC(F)(F)F)nc1 [Compound 1, 3-iodo-N^2-(1-methylethyl)-N^1-[6-(2,2,2-trifluoroethoxy)-3-pyridinyl]-1,2-benzenedicarboxamide] | ≤ 10 | ≤ 10 | ≤ 10
CC(C)NC(=O)c1cccc(I)c1C(=O)Nc1ccc(OCC(F)(F)F)nc1 [Compound 2, 6-iodo-N^2-(1-methylethyl)-N^1-[6-(2,2,2-trifluoroethoxy)-3-pyridinyl]-1,2-benzenedicarboxamide] | – | ≤ 10 | –
